The target in the test is T1, hKLB.
T1 sequence: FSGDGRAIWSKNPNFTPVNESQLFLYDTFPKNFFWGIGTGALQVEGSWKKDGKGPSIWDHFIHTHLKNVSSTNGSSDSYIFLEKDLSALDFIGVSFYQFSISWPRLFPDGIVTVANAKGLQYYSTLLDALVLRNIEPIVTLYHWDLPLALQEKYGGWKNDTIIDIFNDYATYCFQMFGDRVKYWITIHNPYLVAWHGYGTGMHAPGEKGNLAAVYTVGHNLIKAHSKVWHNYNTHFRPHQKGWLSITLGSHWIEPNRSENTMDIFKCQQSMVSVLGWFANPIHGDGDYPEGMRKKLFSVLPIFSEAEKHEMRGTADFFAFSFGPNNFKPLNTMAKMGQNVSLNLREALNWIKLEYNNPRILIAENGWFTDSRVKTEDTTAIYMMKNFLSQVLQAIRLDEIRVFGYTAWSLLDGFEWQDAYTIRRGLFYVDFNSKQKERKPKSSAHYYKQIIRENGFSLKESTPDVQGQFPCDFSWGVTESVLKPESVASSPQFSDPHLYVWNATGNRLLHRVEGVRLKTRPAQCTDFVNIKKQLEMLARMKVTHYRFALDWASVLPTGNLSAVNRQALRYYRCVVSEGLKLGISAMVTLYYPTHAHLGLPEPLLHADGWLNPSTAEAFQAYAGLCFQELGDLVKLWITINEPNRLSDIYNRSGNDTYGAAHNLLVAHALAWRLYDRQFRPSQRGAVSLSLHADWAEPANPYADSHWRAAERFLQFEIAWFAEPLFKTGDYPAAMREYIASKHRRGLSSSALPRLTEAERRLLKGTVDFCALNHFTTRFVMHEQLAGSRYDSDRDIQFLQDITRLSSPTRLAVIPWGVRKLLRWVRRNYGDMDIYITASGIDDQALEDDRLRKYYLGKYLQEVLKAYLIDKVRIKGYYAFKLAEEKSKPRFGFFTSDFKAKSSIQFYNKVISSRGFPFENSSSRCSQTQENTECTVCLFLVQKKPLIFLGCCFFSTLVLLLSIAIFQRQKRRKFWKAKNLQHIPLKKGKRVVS
Briefly: FACS on 293 cells expressing hKLB, antibody at 0.8 ug/ml.

These are yes or no findings as the source states them, for the method shown. Some results given as binding are weak or reduced against the parent protein; the word gives no strength.

B1: 8E1 (antibody, V domains shown)
VH: EVQLQQSGAELVKPGASVKLSCTAADFNIKDTYMHWVKQRPEQGLEWIGRIDPSNGNAKYDPKFQGKASITADSSSNTAYLHLSSLTSEDTAVYYCASRALGNGYALGYWGQGTSVTVSS
VL: DIQMTQSSSYLSVSLGGSVTITCKASDHINNWLAWYQQKPGNAPRLLIYGTTNLETGVPSRFSGSGSGRDYILSITSLQSEDVASYYCQQYWNTPFTFGSGTKLEIK
As to B1, the binding result is listed as “binds”.

The record behind these values is patent publication US20160244525A1.
